Measurements reported in the supplement of paper PMC12595434, “Development of retinoid nuclear receptor pathway antagonists through targeting aldehyde dehydrogenase 1A3” (iScience, 2025).
Some of the results follow. Single values of this set are uncertain.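 Many melting curves are irregular; where none melted, Tm was taken as 64 °C.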

Amino acid sequences for entries named in this document (tags omitted). A change or cut given only in a name is not applied to a line headed by its entry.
UniProt P05161, whole entry: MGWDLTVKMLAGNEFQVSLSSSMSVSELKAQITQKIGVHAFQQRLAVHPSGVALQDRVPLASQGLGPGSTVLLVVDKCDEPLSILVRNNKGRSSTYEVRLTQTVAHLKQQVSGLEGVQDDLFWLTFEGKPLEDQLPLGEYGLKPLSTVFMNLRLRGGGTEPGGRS
UniProt O95182, whole entry: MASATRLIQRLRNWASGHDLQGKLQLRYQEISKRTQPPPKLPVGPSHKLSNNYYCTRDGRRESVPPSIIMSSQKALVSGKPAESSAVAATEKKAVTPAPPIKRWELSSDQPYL
UniProt O95757: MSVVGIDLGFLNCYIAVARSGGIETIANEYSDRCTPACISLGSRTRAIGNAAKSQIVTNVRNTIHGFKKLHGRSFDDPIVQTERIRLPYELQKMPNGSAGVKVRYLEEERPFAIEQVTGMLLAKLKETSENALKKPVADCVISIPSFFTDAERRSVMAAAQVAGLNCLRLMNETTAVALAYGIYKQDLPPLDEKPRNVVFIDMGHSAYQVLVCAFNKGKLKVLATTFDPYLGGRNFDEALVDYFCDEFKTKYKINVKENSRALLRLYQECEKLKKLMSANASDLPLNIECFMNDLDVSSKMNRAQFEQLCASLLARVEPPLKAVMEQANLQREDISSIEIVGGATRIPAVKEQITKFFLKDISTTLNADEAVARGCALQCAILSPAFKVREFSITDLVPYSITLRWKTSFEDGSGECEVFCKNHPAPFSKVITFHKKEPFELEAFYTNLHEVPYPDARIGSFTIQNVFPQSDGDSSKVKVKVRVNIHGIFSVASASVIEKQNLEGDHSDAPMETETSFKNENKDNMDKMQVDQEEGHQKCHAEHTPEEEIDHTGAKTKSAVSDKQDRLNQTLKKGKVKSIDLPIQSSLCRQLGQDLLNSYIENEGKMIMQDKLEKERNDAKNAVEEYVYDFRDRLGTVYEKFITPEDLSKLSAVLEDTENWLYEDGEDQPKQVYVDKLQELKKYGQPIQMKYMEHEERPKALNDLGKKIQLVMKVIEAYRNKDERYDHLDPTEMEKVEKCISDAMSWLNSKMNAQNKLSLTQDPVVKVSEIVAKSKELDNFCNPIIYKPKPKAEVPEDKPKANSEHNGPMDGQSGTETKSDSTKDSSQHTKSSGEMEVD
UniProt P04843: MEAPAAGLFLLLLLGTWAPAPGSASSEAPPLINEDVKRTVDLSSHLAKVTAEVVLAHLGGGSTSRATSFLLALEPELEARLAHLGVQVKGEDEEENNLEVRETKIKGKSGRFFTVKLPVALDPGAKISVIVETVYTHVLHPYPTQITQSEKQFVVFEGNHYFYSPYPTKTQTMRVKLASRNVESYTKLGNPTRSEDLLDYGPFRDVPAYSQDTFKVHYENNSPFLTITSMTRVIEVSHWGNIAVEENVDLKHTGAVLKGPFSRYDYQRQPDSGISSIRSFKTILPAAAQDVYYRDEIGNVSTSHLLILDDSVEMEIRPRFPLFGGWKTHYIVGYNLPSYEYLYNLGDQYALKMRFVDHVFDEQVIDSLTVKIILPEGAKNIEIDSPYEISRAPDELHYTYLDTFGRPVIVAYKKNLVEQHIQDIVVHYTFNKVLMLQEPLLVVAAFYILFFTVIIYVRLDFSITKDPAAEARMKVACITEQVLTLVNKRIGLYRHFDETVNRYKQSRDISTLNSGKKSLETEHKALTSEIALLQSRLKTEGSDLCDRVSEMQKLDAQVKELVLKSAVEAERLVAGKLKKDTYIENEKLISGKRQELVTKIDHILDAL
UniProt P06241, whole entry, looked up: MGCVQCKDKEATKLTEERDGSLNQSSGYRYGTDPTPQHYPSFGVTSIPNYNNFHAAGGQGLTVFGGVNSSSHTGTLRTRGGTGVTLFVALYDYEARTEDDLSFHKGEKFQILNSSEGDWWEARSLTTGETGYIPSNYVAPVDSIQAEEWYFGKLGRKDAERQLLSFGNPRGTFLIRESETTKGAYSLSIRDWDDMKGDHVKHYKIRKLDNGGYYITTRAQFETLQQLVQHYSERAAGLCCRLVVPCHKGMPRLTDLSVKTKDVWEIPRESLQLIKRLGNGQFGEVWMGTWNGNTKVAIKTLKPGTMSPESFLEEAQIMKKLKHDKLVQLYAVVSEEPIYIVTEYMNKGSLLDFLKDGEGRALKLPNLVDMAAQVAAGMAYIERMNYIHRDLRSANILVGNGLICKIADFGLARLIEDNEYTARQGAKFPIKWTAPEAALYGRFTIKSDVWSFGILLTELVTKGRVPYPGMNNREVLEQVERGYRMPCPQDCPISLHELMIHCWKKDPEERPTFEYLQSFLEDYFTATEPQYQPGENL
UniProt P00491: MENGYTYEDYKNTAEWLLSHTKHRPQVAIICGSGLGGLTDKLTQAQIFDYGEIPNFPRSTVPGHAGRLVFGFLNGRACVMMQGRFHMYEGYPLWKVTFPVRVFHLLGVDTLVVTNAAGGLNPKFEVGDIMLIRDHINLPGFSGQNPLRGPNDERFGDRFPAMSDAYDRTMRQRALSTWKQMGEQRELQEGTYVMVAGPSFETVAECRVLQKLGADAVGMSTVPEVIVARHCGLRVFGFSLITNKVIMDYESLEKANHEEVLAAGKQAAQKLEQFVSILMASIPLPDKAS
UniProt O95258: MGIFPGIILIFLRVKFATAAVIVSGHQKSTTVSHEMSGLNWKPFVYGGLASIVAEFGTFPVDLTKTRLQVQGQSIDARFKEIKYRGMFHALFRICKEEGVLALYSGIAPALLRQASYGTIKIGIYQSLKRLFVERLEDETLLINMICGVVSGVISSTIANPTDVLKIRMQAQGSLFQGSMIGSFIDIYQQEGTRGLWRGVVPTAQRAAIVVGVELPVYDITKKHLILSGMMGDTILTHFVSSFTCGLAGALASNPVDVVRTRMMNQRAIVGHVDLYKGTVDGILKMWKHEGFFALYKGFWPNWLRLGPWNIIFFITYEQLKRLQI
UniProt O75964: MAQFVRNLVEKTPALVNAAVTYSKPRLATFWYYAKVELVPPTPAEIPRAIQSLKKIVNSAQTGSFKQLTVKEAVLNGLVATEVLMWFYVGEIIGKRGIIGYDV
UniProt O94763, whole entry: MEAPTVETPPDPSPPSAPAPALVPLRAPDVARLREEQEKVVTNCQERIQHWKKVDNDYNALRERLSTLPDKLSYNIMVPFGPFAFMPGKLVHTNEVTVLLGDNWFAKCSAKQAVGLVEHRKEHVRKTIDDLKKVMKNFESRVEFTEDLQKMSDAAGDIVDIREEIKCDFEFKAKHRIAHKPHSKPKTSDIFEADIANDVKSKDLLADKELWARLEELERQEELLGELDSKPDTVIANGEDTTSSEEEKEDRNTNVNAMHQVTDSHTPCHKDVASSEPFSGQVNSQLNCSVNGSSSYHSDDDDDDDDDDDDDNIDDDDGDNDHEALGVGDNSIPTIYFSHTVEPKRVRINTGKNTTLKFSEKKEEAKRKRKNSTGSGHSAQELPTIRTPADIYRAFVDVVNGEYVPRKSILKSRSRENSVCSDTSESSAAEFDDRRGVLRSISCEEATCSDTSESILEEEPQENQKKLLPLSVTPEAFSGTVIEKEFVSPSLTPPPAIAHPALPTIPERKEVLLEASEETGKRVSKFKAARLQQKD
UniProt O95834: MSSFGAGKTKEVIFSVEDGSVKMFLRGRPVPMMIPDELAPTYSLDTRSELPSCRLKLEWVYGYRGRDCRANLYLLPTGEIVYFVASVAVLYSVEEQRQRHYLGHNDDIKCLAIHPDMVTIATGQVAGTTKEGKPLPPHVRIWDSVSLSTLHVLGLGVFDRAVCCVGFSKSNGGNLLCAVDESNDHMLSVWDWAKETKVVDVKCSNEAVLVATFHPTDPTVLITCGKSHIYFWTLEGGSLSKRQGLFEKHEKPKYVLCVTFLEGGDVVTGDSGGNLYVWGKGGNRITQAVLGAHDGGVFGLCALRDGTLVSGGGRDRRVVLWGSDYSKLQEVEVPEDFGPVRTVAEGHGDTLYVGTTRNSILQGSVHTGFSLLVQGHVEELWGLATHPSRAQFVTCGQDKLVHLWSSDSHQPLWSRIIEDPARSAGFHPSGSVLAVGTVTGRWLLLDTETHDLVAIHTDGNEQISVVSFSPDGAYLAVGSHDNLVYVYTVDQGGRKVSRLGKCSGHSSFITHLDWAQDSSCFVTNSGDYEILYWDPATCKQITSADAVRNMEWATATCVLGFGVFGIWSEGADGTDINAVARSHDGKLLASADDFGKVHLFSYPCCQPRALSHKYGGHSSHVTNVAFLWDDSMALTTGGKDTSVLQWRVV
UniProt P00367: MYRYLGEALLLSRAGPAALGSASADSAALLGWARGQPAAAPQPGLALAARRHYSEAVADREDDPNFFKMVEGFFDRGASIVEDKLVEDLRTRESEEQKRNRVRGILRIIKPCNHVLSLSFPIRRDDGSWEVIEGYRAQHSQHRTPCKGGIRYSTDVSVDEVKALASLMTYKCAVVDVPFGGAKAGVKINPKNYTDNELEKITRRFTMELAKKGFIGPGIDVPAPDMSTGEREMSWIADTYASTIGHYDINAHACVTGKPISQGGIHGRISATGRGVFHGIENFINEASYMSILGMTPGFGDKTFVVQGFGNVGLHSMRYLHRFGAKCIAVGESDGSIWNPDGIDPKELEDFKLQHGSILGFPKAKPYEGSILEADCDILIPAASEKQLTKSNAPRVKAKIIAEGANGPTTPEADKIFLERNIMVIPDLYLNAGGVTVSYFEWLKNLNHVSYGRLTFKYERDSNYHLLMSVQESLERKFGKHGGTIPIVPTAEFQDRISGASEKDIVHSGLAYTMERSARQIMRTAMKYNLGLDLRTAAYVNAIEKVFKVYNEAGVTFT
UniProt O94885: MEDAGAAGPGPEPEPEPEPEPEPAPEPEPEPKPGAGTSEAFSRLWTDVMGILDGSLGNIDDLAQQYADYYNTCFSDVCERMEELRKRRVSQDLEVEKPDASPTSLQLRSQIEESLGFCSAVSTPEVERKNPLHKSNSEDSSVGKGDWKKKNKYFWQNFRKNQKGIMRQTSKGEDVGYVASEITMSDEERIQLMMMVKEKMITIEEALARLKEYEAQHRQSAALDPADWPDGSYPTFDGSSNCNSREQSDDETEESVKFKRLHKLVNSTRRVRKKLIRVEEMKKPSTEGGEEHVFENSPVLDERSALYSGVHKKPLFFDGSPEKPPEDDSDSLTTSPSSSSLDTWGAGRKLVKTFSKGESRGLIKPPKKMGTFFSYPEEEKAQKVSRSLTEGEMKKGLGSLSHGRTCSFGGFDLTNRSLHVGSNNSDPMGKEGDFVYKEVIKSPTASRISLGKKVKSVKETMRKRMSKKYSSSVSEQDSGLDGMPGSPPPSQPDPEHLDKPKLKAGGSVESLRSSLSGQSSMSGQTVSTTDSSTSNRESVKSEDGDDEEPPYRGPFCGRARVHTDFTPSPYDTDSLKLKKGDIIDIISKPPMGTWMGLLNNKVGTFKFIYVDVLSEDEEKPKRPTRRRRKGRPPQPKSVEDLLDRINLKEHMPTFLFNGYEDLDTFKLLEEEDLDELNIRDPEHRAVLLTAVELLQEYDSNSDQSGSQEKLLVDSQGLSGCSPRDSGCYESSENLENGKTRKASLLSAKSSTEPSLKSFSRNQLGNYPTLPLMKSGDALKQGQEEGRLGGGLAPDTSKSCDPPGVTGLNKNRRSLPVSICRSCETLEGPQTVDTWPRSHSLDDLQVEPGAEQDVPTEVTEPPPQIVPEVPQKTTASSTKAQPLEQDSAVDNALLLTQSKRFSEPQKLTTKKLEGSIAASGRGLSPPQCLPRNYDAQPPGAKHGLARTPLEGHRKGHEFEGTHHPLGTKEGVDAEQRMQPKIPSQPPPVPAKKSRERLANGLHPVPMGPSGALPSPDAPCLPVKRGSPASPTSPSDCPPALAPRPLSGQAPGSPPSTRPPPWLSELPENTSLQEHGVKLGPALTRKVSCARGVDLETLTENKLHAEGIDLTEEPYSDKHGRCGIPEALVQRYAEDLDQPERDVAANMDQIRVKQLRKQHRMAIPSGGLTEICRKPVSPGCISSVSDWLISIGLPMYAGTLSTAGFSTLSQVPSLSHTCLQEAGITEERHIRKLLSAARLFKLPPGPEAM
UniProt O95251, whole entry: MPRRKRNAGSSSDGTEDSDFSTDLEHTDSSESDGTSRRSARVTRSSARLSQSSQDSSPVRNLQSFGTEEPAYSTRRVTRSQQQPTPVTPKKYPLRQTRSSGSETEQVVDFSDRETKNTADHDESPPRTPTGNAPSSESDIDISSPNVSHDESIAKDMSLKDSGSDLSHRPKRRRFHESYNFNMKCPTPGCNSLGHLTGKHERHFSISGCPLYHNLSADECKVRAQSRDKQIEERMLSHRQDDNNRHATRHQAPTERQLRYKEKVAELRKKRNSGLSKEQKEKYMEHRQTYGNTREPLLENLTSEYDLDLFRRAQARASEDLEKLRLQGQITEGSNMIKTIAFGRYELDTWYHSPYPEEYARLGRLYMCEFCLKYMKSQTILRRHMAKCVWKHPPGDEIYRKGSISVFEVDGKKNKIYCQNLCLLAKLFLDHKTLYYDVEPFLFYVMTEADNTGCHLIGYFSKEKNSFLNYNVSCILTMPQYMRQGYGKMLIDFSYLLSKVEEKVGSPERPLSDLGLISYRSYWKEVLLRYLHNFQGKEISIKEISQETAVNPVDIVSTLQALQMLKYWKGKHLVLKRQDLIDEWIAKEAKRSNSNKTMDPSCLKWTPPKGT

Compound: CCc1cnccc1C(=O)Nc1cc2c(cc1F)NC(=O)CC2
Test: melting temperature shift (DMSO Tm minus MBE1-treated Tm) in cellular thermal proteome profiling; higher = less thermal stabilization by MBE1 (negative = stabilized by MBE1)
Conditions: A375

Target	melting temperature shift (MBE1 concentration: 100 nM)	melting temperature shift (MBE1 concentration: 1 uM)
ACTL6A (UniProt O96019)	-0.845 °C	-0.34 °C
ISG15 (UniProt P05161)	0.714 °C	-0.281 °C
CCNK (UniProt O75909)	-0.355 °C	0.604 °C
NDUFA7 (UniProt O95182)	0.342 °C	0.991 °C
ACSL3 (UniProt O95573)	0.287 °C	0.36 °C
HSPA4L (UniProt O95757)	-0.293 °C	-0.733 °C
RPN1 (UniProt P04843)	-0.355 °C	0.0805 °C
TGFB1 (UniProt P01137)	0.287 °C	-1.23 °C
LMNA (UniProt P02545)	-0.516 °C	-0.463 °C
UniProt O95644	3.77 °C	–
TOMM40 (UniProt O96008)	–	0.871 °C
UniProt O94818	-1.17 °C	–
ZWINT (UniProt O95229)	1.06 °C	-0.275 °C
FCHSD2 (UniProt O94868)	–	0.032 °C
UniProt P05106	–	-1.46 °C
SYF2 (UniProt O95926)	-1.39 °C	–
ASL (UniProt P04424)	-0.653 °C	0.195 °C
TRIM16 (UniProt O95361)	3.87 °C	2.8 °C
UniProt P04440	–	-2.9 °C
UROD (UniProt P06132)	-1.69 °C	-1.17 °C
HERC2 (UniProt O95714)	-1.3 °C	-0.433 °C
PCCA (UniProt P05165)	-0.355 °C	0.644 °C
FYN (UniProt P06241)	-1.77 °C	–
GAPDH (UniProt P04406)	-1.31 °C	-2.47 °C
UniProt O95568	-0.0329 °C	–

Target	melting temperature shift (MBE1 concentration: 100 nM)	melting temperature shift (MBE1 concentration: 1 uM)
IKBKAP (UniProt O95163)	0.427 °C	0.653 °C
UniProt P04439	-2.07 °C	-1.54 °C
FARP2 (UniProt O94887)	–	-0.275 °C
TFRC (UniProt P02786)	–	-0.523 °C
CDS2 (UniProt O95674)	0.627 °C	0.705 °C
IPO13 (UniProt O94829)	1.09 °C	0.397 °C
UniProt O95294	0.0305 °C	–
PEX11B (UniProt O96011)	–	-1.79 °C
ABL1 (UniProt P00519)	-0.743 °C	-1.23 °C
KIF4A (UniProt O95239)	-0.237 °C	-0.41 °C
PNP (UniProt P00491)	–	0.2 °C
HSPB1 (UniProt P04792)	-1.39 °C	-0.752 °C
UniProt P03915	0.0733 °C	1.99 °C
SVIL (UniProt O95425)	-1.14 °C	-1.11 °C
KRAS (UniProt P01116)	-0.679 °C	-0.941 °C
UniProt O95258	-1.87 °C	-0.372 °C
ETHE1 (UniProt O95571)	-0.0472 °C	-0.189 °C
TOMM70 (UniProt O94826)	0.36 °C	0.0672 °C
POLR1A (UniProt O95602)	-1.24 °C	-0.984 °C
UniProt P05412	-0.617 °C	-0.122 °C
TRIO (UniProt O75962)	0.132 °C	-0.56 °C
CAT (UniProt P04040)	-1.75 °C	-2.02 °C
INSR (UniProt P06213)	-0.551 °C	0.212 °C
UniProt P01112	-0.34 °C	-0.826 °C
SGPL1 (UniProt O95470)	-0.0671 °C	-0.104 °C

Target	melting temperature shift (MBE1 concentration: 100 nM)	melting temperature shift (MBE1 concentration: 1 uM)
ATP5L (UniProt O75964)	-2.85 °C	-2.68 °C
UniProt P01023	-1.49 °C	1.06 °C
AK1 (UniProt P00568)	-0.0183 °C	-0.403 °C
USP19 (UniProt O94966)	0.586 °C	-0.0733 °C
FTH1 (UniProt P02794)	-3.9 °C	1.55 °C
URI1 (UniProt O94763)	-1.25 °C	0.0794 °C
EML2 (UniProt O95834)	-0.181 °C	0.107 °C
SSB (UniProt P05455)	-0.324 °C	0.232 °C
HAUS5 (UniProt O94927)	-0.39 °C	-0.713 °C
FBXO21 (UniProt O94952)	0.702 °C	0.348 °C
TTC4 (UniProt O95801)	0.898 °C	-0.0733 °C
ATP5B (UniProt P06576)	-2.83 °C	-2.33 °C
UniProt P00414	0.496 °C	-2.35 °C
GLA (UniProt P06280)	-1.94 °C	-3.3 °C
CLSTN1 (UniProt O94985)	3.24 °C	3.32 °C
GLUD1 (UniProt P00367)	-0.341 °C	-0.25 °C
PCNT (UniProt O95613)	0.841 °C	-0.971 °C
DNAJC8 (UniProt O75937)	-0.403 °C	0.525 °C
UniProt P00918	-5.03 °C	1.21 °C
UniProt P04066	-2.39 °C	-0.165 °C
UniProt O94885	-1.21 °C	-0.244 °C
ZFYVE9 (UniProt O95405)	0.525 °C	-0.189 °C
KAT7 (UniProt O95251)	-0.032 °C	-0.224 °C

Single records, as listed above. Order of values: melting temperature shift (MBE1 concentration: 100 nM)	melting temperature shift (MBE1 concentration: 1 uM)
TFRC (UniProt P02786) as listed: –	-0.523 °C
FARP2 (UniProt O94887) as listed: –	-0.275 °C
UniProt P01023 as listed: -1.49 °C	1.06 °C
INSR (UniProt P06213) as listed: -0.551 °C	0.212 °C
